Results on nine molecules are retold here after patent US12729225B2, “Non-canonical SWI/SNF complex and uses thereof” (Dana-Farber Cancer Institute, Inc., priority 2018, dated 2026).

Sequences and labels used below:
B1: PCK2 (protein, UniProt Q16822 33-640, looked up)
Phosphoenolpyruvate …: LSGDLGQLPTGIRDFVEHSARLCQPEGIHICDGTEAENTATLTLLEQQGLIRKLPKYNNCWLARTDPKDVARVESKTVIVTPSQRDTVPLPPGGARGQLGNWMSPADFQRAVDERFPGCMQGRTMYVLPFSMGPVGSPLSRIGVQLTDSAYVVASMRIMTRLGTPVLQALGDGDFVKCLHSVGQPLTGQGEPVSQWPCNPEKTLIGHVPDQREIISFGSGYGGNSLLGKKCFALRIASRLARDEGWLAEHMLILGITSPAGKKRYVAAAFPSACGKTNLAMMRPALPGWKVECVGDDIAWMRFDSEGRLRAINPENGFFGVAPGTSATTNPNAMATIQSNTIFTNVAETSDGGVYWEGIDQPLPPGVTVTSWLGKPWKPGDKEPCAHPNSRFCAPARQCPIMDPAWEAPEGVPIDAIIFGGRRPKGVPLVYEAFNWRHGVFVGSAMRSESTAAAEHKGKIIMHDPFAMRPFFGYNFGHYLEHWLSMEGRKGAQLPRIFHVNWFRRDEAGHFLWPGFGENARVLDWICRRLEGEDSARETPIGLVPKEGALDLSGLRAIDTTQLFSLPKDFWEQEVRDIRSYLTEQVNQDLPKEVLAELEALERRVHKM
B2: PDIA3 (protein, UniProt P30101 25-505, looked up)
Protein disulfide-isomerase A3: SDVLELTDDNFESRISDTGSAGLMLVEFFAPWCGHCKRLAPEYEAAATRLKGIVPLAKVDCTANTNTCNKYGVSGYPTLKIFRDGEEAGAYDGPRTADGIVSHLKKQAGPASVPLRTEEEFKKFISDKDASIVGFFDDSFSEAHSEFLKAASNLRDNYRFAHTNVESLVNEYDDNGEGIILFRPSHLTNKFEDKTVAYTEQKMTSGKIKKFIQENIFGICPHMTEDNKDLIQGKDLLIAYYDVDYEKNAKGSNYWRNRVMMVAKKFLDAGHKLNFAVASRKTFSHELSDFGLESTAGEIPVVAIRTAKGEKFVMQEEFSRDGKALERFLQDYFDGNLKRYLKSEPIPESNDGPVKVVVAENFDEIVNNENKDVLIEFYAPWCGHCKNLEPKYKELGEKLSKDPNIVIAKMDATANDVPSPYEVRGFPTIYFSPANKKLNPKKYEGGRELSDFISYLQREATNPPVIQEEKPKKKKKAQEDL
B3: IARS2 (protein, UniProt Q9NSE4 49-1012, looked up)
Isoleucine--tRNA ligase, …: SNHQPNSNSGRYRDTVLLPQTSFPMKLLGRQQPDTELEIQQKCGFSELYSWQRERKVKTEFCLHDGPPYANGDPHVGHALNKILKDIANRFHMMNGSKIHFVPGWDCHGLPIEIKVLSELGREAQNLSAMEIRKKARSFAKAAIEKQKSAFIRWGIMADWNNCYYTFDGKYEAKQLRTFYQMYDKGLVYRSYKPVFWSPSSRTALAEAELEYNPEHVSRSIYVKFPLLKPSPKLASLIDGSSPVSILVWTTQPWTIPANEAVCYMPESKYAVVKCSKSGDLYVLAADKVASVASTLETTFETISTLSGVDLENGTCSHPLIPDKASPLLPANHVTMAKGTGLVHTAPAHGMEDYGVASQHNLPMDCLVDEDGVFTDVAGPELQNKAVLEEGTDVVIKMLQTAKNLLKEEKLVHSYPYDWRTKKPVVIRASKQWFINITDIKTAAKELLKKVKFIPGSALNGMVEMMDRRPYWCISRQRVWGVPIPVFHHKTKDEYLINSQTTEHIVKLVEQHGSDIWWTLPPEQLLPKEVLSEVGGPDALEYVPGQDILDIWFDSGTSWSYVLPGPDQRADLYLEGKDQLGGWFQSSLLTSVAARKRAPYKTVIVHGFTLGEKGEKMSKSLGNVIHPDVVVNGGQDQSKEPPYGADVLRWWVADSNVFTEVAIGPSVLNAARDDISKLRNTLRFLLGNVADFNPETDSIPVNDMYVIDQYMLHLLQDLANKITELYKQYDFGKVVRLLRTFYTRELSNFYFSIIKDRLYCEKENDPKRRSCQTALVEILDVIVRSFAPILPHLAEEVFQHIPYIKEPKSVFRTGWISTSSIWKKPGLEEAVESACAMRDSFLGSIPGKNAAEYKVITVIEPGLLFEIIEMLQSEETSSTSQLNELMMASESTLLAQEPREMTADVIELKGKFLINLEGGDIREESSYKVIVMPTTKEKCPRCWKYTAESSDTLCPRCAEVVSGK
B4: PRPF40A (protein, UniProt O75400 1-957, looked up)
Pre-mRNA-processing factor 40 …: MRPGTGAERGGLMVSEMESHPPSQGPGDGERRLSGSSLCSGSWVSADGFLRRRPSMGHPGMHYAPMGMHPMGQRANMPPVPHGMMPQMMPPMGGPPMGQMPGMMSSVMPGMMMSHMSQASMQPALPPGVNSMDVAAGTASGAKSMWTEHKSPDGRTYYYNTETKQSTWEKPDDLKTPAEQLLSKCPWKEYKSDSGKPYYYNSQTKESRWAKPKELEDLEGYQNTIVAGSLITKSNLHAMIKAEESSKQEECTTTSTAPVPTTEIPTTMSTMAAAEAAAAVVAAAAAAAAAAAAANANASTSASNTVSGTVPVVPEPEVTSIVATVVDNENTVTISTEEQAQLTSTPAIQDQSVEVSSNTGEETSKQETVADFTPKKEEEESQPAKKTYTWNTKEEAKQAFKELLKEKRVPSNASWEQAMKMIINDPRYSALAKLSEKKQAFNAYKVQTEKEEKEEARSKYKEAKESFQRFLENHEKMTSTTRYKKAEQMFGEMEVWNAISERDRLEIYEDVLFFLSKKEKEQAKQLRKRNWEALKNILDNMANVTYSTTWSEAQQYLMDNPTFAEDEELQNMDKEDALICFEEHIRALEKEEEEEKQKSLLRERRRQRKNRESFQIFLDELHEHGQLHSMSSWMELYPTISSDIRFTNMLGQPGSTALDLFKFYVEDLKARYHDEKKIIKDILKDKGFVVEVNTTFEDFVAIISSTKRSTTLDAGNIKLAFNSLLEKAEAREREREKEEARKMKRKESAFKSMLKQAAPPIELDAVWEDIRERFVKEPAFEDITLESERKRIFKDFMHVLEHECQHHHSKNKKHSKKSKKHHRKRSRSRSGSDSDDDDSHSKKKRQRSESRSASEHSSSAESERSYKKSKKHKKKSKKRRHKSDSPESDAEREKDKKEKDRESEKDRTRQRSESKHKSPKKKTGKDSGNWDTSGSELSEGELEKRRRTLLEQLDDDQ
B5: EBNA1BP2 (protein, UniProt Q99848 1-306, looked up)
Probable rRNA-processing …: MDTPPLSDSESESDESLVTDRELQDAFSRGLLKPGLNVVLEGPKKAVNDVNGLKQCLAEFKRDLEWVERLDVTLGPVPEIGGSEAPAPQNKDQKAVDPEDDFQREMSFYRQAQAAVLAVLPRLHQLKVPTKRPTDYFAEMAKSDLQMQKIRQKLQTKQAAMERSEKAKQLRALRKYGKKVQTEVLQKRQQEKAHMMNAIKKYQKGFSDKLDFLEGDQKPLAQRKKAGAKGQQMRKGPSAKRRYKNQKFGFGGKKKGSKWNTRESYDDVSSFRAKTAHGRGLKRPGKKGSNKRPGKRTREKMKNRTH
B6: ZNF512 (protein, UniProt Q96ME7 1-567, looked up)
Zinc finger protein 512: MSSRLGAVPATSGPTTFKQQRSTRIVGAKNSRTQCSIKDNSFQYTIPHDDSLSGSSSASSCEPVSDFPASFRKSTYWMKMRRIKPAATSHVEGSGGVSAKGKRKPRQEEDEDYREFPQKKHKLYGRKQRPKTQPNPKSQARRIRKEPPVYAAGSLEEQWYLEIVDKGSVSCPTCQAVGRKTIEGLKKHMENCKQEMFTCHHCGKQLRSLAGMKYHVMANHNSLPILKAGDEIDEPSERERLRTVLKRLGKLRCMRESCSSSFTSIMGYLYHVRKCGKGAAELEKMTLKCHHCGKPYRSKAGLAYHLRSEHGPISFFPESGQPECLKEMNLESKSGGRVQRRSAKIAVYHLQELASAELAKEWPKRKVLQDLVPDDRKLKYTRPGLPTFSQEVLHKWKTDIKKYHRIQCPNQGCEAVYSSVSGLKAHLGSCTLGNFVAGKYKCLLCQKEFVSESGVKYHINSVHAEDWFVVNPTTTKSFEKLMKIKQRQQEEEKRRQQHRSRRSLRRRQQPGIELPETELSLRVGKDQRRNNEELVVSASCKEPEQEPVPAQFQKVKPPKTNHKRGRK
B7: BUD13 (protein, UniProt Q9BRD0 1-619, looked up)
BUD13 homolog: MAAAPPLSKAEYLKRYLSGADAGVDRGSESGRKRRKKRPKPGGAGGKGMRIVDDDVSWTAISTTKLEKEEEEDDGDLPVVAEFVDERPEEVKQMEAFRSSAKWKLLGGHNEDLPSNRHFRHDTPDSSPRRVRHGTPDPSPRKDRHDTPDPSPRRARHDTPDPSPLRGARHDSDTSPPRRIRHDSSDTSPPRRARHDSPDPSPPRRPQHNSSGASPRRVRHDSPDPSPPRRARHGSSDISSPRRVHNNSPDTSRRTLGSSDTQQLRRARHDSPDLAPNVTYSLPRTKSGKAPERASSKTSPHWKESGASHLSFPKNSKYEYDPDISPPRKKQAKSHFGDKKQLDSKGDCQKATDSDLSSPRHKQSPGHQDSDSDLSPPRNRPRHRSSDSDLSPPRRRQRTKSSDSDLSPPRRSQPPGKKAAHMYSGAKTGLVLTDIQREQQELKEQDQETMAFEAEFQYAETVFRDKSGRKRNLKLERLEQRRKAEKDSERDELYAQWGKGLAQSRQQQQNVEDAMKEMQKPLARYIDDEDLDRMLREQEREGDPMANFIKKNKAKENKNKKVRPRYSGPAPPPNRFNIWPGYRWDGVDRSNGFEQKRFARLASKKAVEELAYKWSVEDM
B8: VANGL2 (protein, UniProt Q9ULK5 1-521, looked up)
Vang-like protein 2: MDTESQYSGYSYKSGHSRSSRKHRDRRDRHRSKSRDGGRGDKSVTIQAPGEPLLDNESTRGDERDDNWGETTTVVTGTSEHSISHDDLTRIAKDMEDSVPLDCSRHLGVAAGATLALLSFLTPLAFLLLPPLLWREELEPCGTACEGLFISVAFKLLILLLGSWALFFRRPKASLPRVFVLRALLMVLVFLLVVSYWLFYGVRILDARERSYQGVVQFAVSLVDALLFVHYLAVVLLELRQLQPQFTLKVVRSTDGASRFYNVGHLSIQRVAVWILEKYYHDFPVYNPALLNLPKSVLAKKVSGFKVYSLGEENSTNNSTGQSRAVIAAAARRRDNSHNEYYYEEAEHERRVRKRRARLVVAVEEAFTHIKRLQEEEQKNPREVMDPREAAQAIFASMARAMQKYLRTTKQQPYHTMESILQHLEFCITHDMTPKAFLERYLAAGPTIQYHKERWLAKQWTLVSEEPVTNGLKDGIVFLLKRQDFSLVVSTKKVPFFKLSEEFVDPKSHKFVMRLQSETSV
B9: CCDC47 (protein, UniProt Q96A33 21-483, looked up)
PAT complex subunit CCDC47: KFDDFEDEEDIVEYDDNDFAEFEDVMEDSVTESPQRVIITEDDEDETTVELEGQDENQEGDFEDADTQEGDTESEPYDDEEFEGYEDKPDTSSSKNKDPITIVDVPAHLQNSWESYYLEILMVTGLLAYIMNYIIGKNKNSRLAQAWFNTHRELLESNFTLVGDDGTNKEATSTGKLNQENEHIYNLWCSGRVCCEGMLIQLRFLKRQDLLNVLARMMRPVSDQVQIKVTMNDEDMDTYVFAVGTRKALVRLQKEMQDLSEFCSDKPKSGAKYGLPDSLAILSEMGEVTDGMMDTKMVHFLTHYADKIESVHFSDQFSGPKIMQEEGQPLKLPDTKRTLLFTFNVPGSGNTYPKDMEALLPLMNMVIYSIDKAKKFRLNREGKQKADKNRARVEENFLKLTHVQRQEAAQSRREEKKRAEKERIMNEEDPEKQRRLEEAALRREQKKLEKKQMKMKQIKVKAM

One series concerns mSWI/SNF complexes. Description: mSWI/SNF complex purification with HA-tagged baits and mass spectrometry (peptide counts). Details: species or system human. Particulars: 293_HA-BRD7: HA-BRD7 bait purification, total peptide count per co-purified protein.
In turn, B1 returned a Total of 8.

In turn, B2 returned a Total of 8.

B3 showed a Total of 8.

B4 registered a Total of 8.

B5 registered a Total of 8.

For B6, the Total is reported as 8.

As to B7, the Total came out at 8.

The molecule B8 showed a Total of 8.

In the case of B9, the Total stood at 8.

Staying with this series, now noted: 293_HA-BRD7: HA-BRD7 bait purification, unique peptide count per co-purified protein.
As for B1, the Unique is reported as 8.

B2: the Unique was 8.

For B3, the Unique amounted to 8.

B4 registered a Unique of 8.

In turn, B5 displayed a Unique of 8.

In the case of B6, the Unique turned out to be 8.

As for B7, the Unique is given as 8.

Regarding B8, the Unique is 8.

B9 registered a Unique of 8.

The same series, now with this note: 293_HA-BRD7 bait purification, mass spectrometry; total peptides per co-purified protein.
The molecule B2 displayed a Total of 1.

Staying with this series, now noted: 293_HA-BRD7 bait purification, mass spectrometry; unique peptides per co-purified protein.
Turning to B2, the Unique is reported as 1.
